Assay results from doi:10.1101/2023.01.08.523168 (bioRxiv, 2023).
Results are given in words; binding and its absence hold for the method and conditions named. Some binding calls cover weakened binding; strength is not graded here. For some assays here: Tags and fused reporters may be left off the sequences shown.

Chains of the proteins cited; added tags and fusions are not shown. Residues count along the entry.
UniProt O95619, residues 15-158: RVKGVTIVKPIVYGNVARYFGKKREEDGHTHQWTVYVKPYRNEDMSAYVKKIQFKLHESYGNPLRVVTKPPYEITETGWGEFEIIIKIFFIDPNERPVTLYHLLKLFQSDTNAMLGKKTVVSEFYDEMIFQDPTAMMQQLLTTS

T1: 6x His-tagged ENL YEATS domain (human, UniProt Q03111 1-138)
T1 sequence (looked up): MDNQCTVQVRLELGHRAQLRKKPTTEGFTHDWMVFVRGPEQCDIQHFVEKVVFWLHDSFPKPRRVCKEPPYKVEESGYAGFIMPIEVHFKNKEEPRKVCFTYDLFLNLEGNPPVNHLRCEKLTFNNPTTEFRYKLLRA

T2: YEATS2 (human) (UniProt Q9ULM3)
T2 sequence: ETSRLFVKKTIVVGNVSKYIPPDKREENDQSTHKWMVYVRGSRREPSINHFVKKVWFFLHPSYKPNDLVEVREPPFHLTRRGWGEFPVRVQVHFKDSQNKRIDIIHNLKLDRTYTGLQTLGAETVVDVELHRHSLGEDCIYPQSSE


Experiments:
[1] = molecular target: T1, 6x His-tagged ENL YEATS domain; assay: AlphaScreen or HTRF
[2] = molecular target: T2, YEATS2 (human); assay: BLI
[3] = molecular target: GAS41 (human) (UniProt O95619); assay: BLI
[4] = molecular target: T1, 6x His-tagged ENL YEATS domain; assay: BLI

Row | Binder | binding [1] | other results
1 | YAVYCYK (N^ε-butyryl-L-lysine (BuK) at position 7) [ENL-S1 with the 2nd residue (aspartic acid) replaced by alanine] | binds | –
2 | ADVYCYK (N^ε-butyryl-L-lysine (BuK) at position 7) [ENL-S1 with the 1st residue (tyrosine) replaced by alanine] | binds | –
3 | YDVACYK (N^ε-butyryl-L-lysine (BuK) at position 7) [ENL-S1 with the 4th residue (tyrosine) replaced by alanine] | binds | –
4 | VYCYK (N-terminal acetyl; N^ε-2-furancarbonyl-L-lysine (FurK) at position 5) [tENL-S1f] | – | binding [2]: no binding (tested: 10 μM); binding [3]: no binding (tested: 10 μM); binding [4]: binds
5 | YDVYCAK (N^ε-butyryl-L-lysine (BuK) at position 7) [ENL-S1 with the 6th residue (tyrosine) replaced by alanine] | no binding | –
6 | YDVYCYA [ENL-S1 with BuK replaced by alanine] | no binding | –
